Measurements reported in PubChem BioAssay AID1259254 (NCATS, 2017).

Assay: 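Genome-wide screen for genes that prevent DNA re-replication in cancer cells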 (primary screen)
Cells: human HCT116 colorectal cancer cells
Reagent: single siRNA against human genes
Time to read-out: 3 days
Detection: 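Imaged Hoechst DNA stain sorts each cell into a cycle phase by DNA amount; per plate, G2 fraction set to 0% for non-targeting and 100% for GMNN siRNA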
Scale: G2 robust z-score and G2 cells, % of GMNN control: higher = more G2 cells, more excess DNA replication
Active means: 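Active siRNAs have a G2 robust z of 5 or more median absolute deviations over the median, which in these data means about 38% or higher of GMNN control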
The deposit covers about 59,000 reagents; shown is a part drawn at random. About 1,550 of all reagents (2.6%) were called active. 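G2 share is only a proxy for re-replication; each gene was hit by three separate siRNAs, and active genes were retested.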 Further read-outs or replicates are left out here. Not given: the amount of reagent.

MORC2 (GeneID 22880) [SID160732570] — G2 robust z-score: 12.8; G2 cells, % of GMNN control: 93.3; Call: active
MORC2 (GeneID 22880) [SID160732579] — G2 robust z-score: 0.0359; G2 cells, % of GMNN control: 3.22; Call: inactive
MORC2 (GeneID 22880) [SID160732587] — G2 robust z-score: -0.23; G2 cells, % of GMNN control: 1.35; Call: inactive
NUP155 (GeneID 9631) [SID160722662] — G2 robust z-score: -0.511; G2 cells, % of GMNN control: -0.626; Call: inactive
NUP155 (GeneID 9631) [SID160722663] — G2 robust z-score: -0.672; G2 cells, % of GMNN control: -1.76; Call: inactive
NUP155 (GeneID 9631) [SID160722664] — G2 robust z-score: 0.185; G2 cells, % of GMNN control: 4.27; Call: inactive
SPC25 (GeneID 57405) [SID160733666] — G2 robust z-score: -0.518; G2 cells, % of GMNN control: -0.678; Call: inactive
SPC25 (GeneID 57405) [SID160745936] — G2 robust z-score: 0.514; G2 cells, % of GMNN control: 6.59; Call: inactive
SPC25 (GeneID 57405) [SID160745940] — G2 robust z-score: 0.718; G2 cells, % of GMNN control: 8.02; Call: inactive
CYP27A1 (GeneID 1593) [SID160752110] — G2 robust z-score: -0.563; G2 cells, % of GMNN control: -0.994; Call: inactive
CYP27A1 (GeneID 1593) [SID160752120] — G2 robust z-score: 1.89; G2 cells, % of GMNN control: 16.3; Call: inactive
CYP27A1 (GeneID 1593) [SID160752131] — G2 robust z-score: 2.29; G2 cells, % of GMNN control: 19.1; Call: inactive

Reagents listed above marked active (1):
MORC2 (GeneID 22880) [SID160732570] — G2 robust z-score: 12.8; G2 cells, % of GMNN control: 93.3; Call: active
